The other results are listed elsewhere or left out. Single values are uncertain, as repeats are few or missing.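 Cells were imaged in 1,536-well plates, and nuclei stained with an antibody against cleaved PARP were counted against all DNA-stained nuclei to give the apoptosis fraction. Screening doses were chosen to leave most cells alive, and resting and induced cleaved-PARP levels differ strongly between cell lines.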
These molecules were tested on RPMI7951 (assay: cleaved PARP positive nuclei fraction relative to DMSO control; melanoma cells; higher = more apoptosis). Conditions: library dose: low library concentration; 72 h.

With `N.N.[Cl][Pt][Cl]` [cisplatin] + CO[C@@H]1[C@H](N(C)C(=O)c2ccccc2)C[C@H]2O[C@]1(C)n1c3ccccc3c3c4c(c5c6ccccc6n2c5c31)C(=O)NC4 [Midostaurin] (first compound 1.6 µM, partner dose 0.08 µM) as the molecule, how does the “cleaved PARP positive nuclei fraction” value read?
Its value is 101%.

How did the “cleaved PARP positive nuclei fraction” value turn out when `CCN(CC)CCNC(=O)c1c(C)[nH]c(/C=C2\C(=O)Nc3ccc(F)cc32)c1C` [sunitinib] + O=C(Oc1ccc([N+](=O)[O-])cc1)N1CCC(C(O)(c2ccc3c(c2)OCO3)c2ccc3c(c2)OCO3)CC1 [JZL184] (first compound 0.4 µM, partner dose 1 µM) was run?
Its value is 65.1%.

`N.N.[Cl][Pt][Cl]` [cisplatin] + Oc1cc(-c2nc(-c3ccccc3)[nH]c2-c2ccncc2)ccc1Cl [L779450] (first compound 1.6 µM, partner dose 0.2 µM) was tested. Which “cleaved PARP positive nuclei fraction” value did it give?
The value was 179%.

With `Clc1ccc(Nc2nnc(Cc3ccncc3)c3ccccc23)cc1` [vatalanib] + O=C(Oc1ccc([N+](=O)[O-])cc1)N1CCC(C(O)(c2ccc3c(c2)OCO3)c2ccc3c(c2)OCO3)CC1 [JZL184] (first compound 2 µM, partner dose 1 µM) as the molecule, how does the “cleaved PARP positive nuclei fraction” value read?
The value was 83.9%.

For `C[As](C)SC[C@H](NC(=O)CC[C@H](N)C(=O)O)C(=O)NCC(=O)O` [Darinaparsin] + OCCn1cc(-c2cnc3nnn(Cc4ccc5ncccc5c4)c3n2)cn1 [PF04217903] (first compound 0.4 µM, partner dose 1 µM), which “cleaved PARP positive nuclei fraction” value is on record?
Its value is 141%.

With `C[C@@H](N)c1ccc(C(=O)Nc2ccnc3[nH]ccc23)cc1` + Cc1cc(SCc2sc(-c3ccc(C(F)(F)F)c(F)c3)nc2C)ccc1OCC(=O)O [GW0742] (first compound 0.4 µM, partner dose 2 µM) as the molecule, how does the “cleaved PARP positive nuclei fraction” value read?
Its value is 446%.

`N.N.[Cl][Pt][Cl]` [cisplatin] + Cn1cncc1[C@@](N)(c1ccc(Cl)cc1)c1ccc2c(c1)c(-c1cccc(Cl)c1)cc(=O)n2C [tipifarnib] (first compound 1.6 µM, partner dose 0.01 µM) was tested. Which “cleaved PARP positive nuclei fraction” value did it give?
Its value is 98.2%.

What follows are molecules tested on RVH-421 in the same assay as above. Conditions: library dose: low library concentration; 72 h.

For `NC1(c2ccc(-c3nc4ccn5c(=O)[nH]nc5c4cc3-c3ccccc3)cc2)CCC1` + O=C(Oc1ccc([N+](=O)[O-])cc1)N1CCC(C(O)(c2ccc3c(c2)OCO3)c2ccc3c(c2)OCO3)CC1 [JZL184] (first compound 0.4 µM, partner dose 1 µM), which “cleaved PARP positive nuclei fraction” value is on record?
The value was 79%.

With `COc1ccc(C2=N[C@@H](c3ccc(Cl)cc3)[C@@H](c3ccc(Cl)cc3)N2C(=O)N2CCNC(=O)C2)c(OC(C)C)c1` [Nutlin-3] + C/C(O)=C(\C#N)C(=O)Nc1cc(Br)ccc1Br [LFM-A13] (first compound 0.1 µM, partner dose 2 µM) as the molecule, how does the “cleaved PARP positive nuclei fraction” value read?
The value was 161%.

With `O=C(/C=C/c1cccnc1)NCCCCC1CCN(C(=O)c2ccccc2)CC1` + Cc1cc(SCc2sc(-c3ccc(C(F)(F)F)c(F)c3)nc2C)ccc1OCC(=O)O [GW0742] (first compound 0.01 µM, partner dose 2 µM) as the molecule, how does the “cleaved PARP positive nuclei fraction” value read?
Its value is 319%.

Which “cleaved PARP positive nuclei fraction” value does the source give for `C[As](C)SC[C@H](NC(=O)CC[C@H](N)C(=O)O)C(=O)NCC(=O)O` [Darinaparsin] + NC(=O)Nc1cc(-c2cccc(F)c2)sc1C(=O)N[C@H]1CCCNC1 [AZD7762] (first compound 0.4 µM, partner dose 0.02 µM) here?
The value was 57.5%.

`C[As](C)SC[C@H](NC(=O)CC[C@H](N)C(=O)O)C(=O)NCC(=O)O` [Darinaparsin] + C[C@@H]1CCN(C(=O)CC#N)C[C@@H]1N(C)c1ncnc2[nH]ccc12 [CP690550] (first compound 0.4 µM, partner dose 1 µM) was tested. Which “cleaved PARP positive nuclei fraction” value did it give?
Its value is 113%.

`C[C@]1(O)C[C@@H](c2nc(-c3ccc4ccc(-c5ccccc5)nc4c3)c3c(N)nccn32)C1` + C/C(O)=C(\C#N)C(=O)Nc1cc(Br)ccc1Br [LFM-A13] (first compound 0.4 µM, partner dose 2 µM) was tested. Which “cleaved PARP positive nuclei fraction” value did it give?
The value was 119%.

How did the “cleaved PARP positive nuclei fraction” value turn out when `N.N.[Cl][Pt][Cl]` [cisplatin] + Cc1cc([N+](=O)[O-])ccc1NS(=O)(=O)c1cc(Cl)ccc1Cl [FH535] (first compound 1.6 µM, partner dose 1 µM) was run?
Its value is 72.9%.

Which “cleaved PARP positive nuclei fraction” value does the source give for `Cn1cc(C2=C(c3cn(C4CCN(Cc5ccccn5)CC4)c4ccccc34)C(=O)NC2=O)c2ccccc21` [Enzastaurin] + O=C1NC(=O)/C(=C/c2ccc(-c3ccc(F)cc3O)o2)S1 [AS252424] (first compound 0.8 µM, partner dose 1 µM) here?
The value was 332%.

For `C=CCNC1=C2C[C@@H](C)C[C@H](OC)[C@H](O)[C@@H](C)/C=C(\C)[C@H](OC(N)=O)[C@@H](OC)/C=C\C=C(/C)C(=O)NC(=CC1=O)C2=O` [Tanespimycin] + Cc1cc(SCc2sc(-c3ccc(C(F)(F)F)c(F)c3)nc2C)ccc1OCC(=O)O [GW0742] (first compound 0.002 µM, partner dose 2 µM), which “cleaved PARP positive nuclei fraction” value is on record?
The value was 116%.

Which “cleaved PARP positive nuclei fraction” value does the source give for `O=C(O)c1ccc2c(c1)nc(Nc1cccc(Cl)c1)c1ccncc12` + O=C(Oc1ccc([N+](=O)[O-])cc1)N1CCC(C(O)(c2ccc3c(c2)OCO3)c2ccc3c(c2)OCO3)CC1 [JZL184] (first compound 0.4 µM, partner dose 1 µM) here?
Its value is 130%.

For `N.N.[Cl][Pt][Cl]` [cisplatin] + Cc1cc(N2CCOCC2)cc2[nH]c(-c3c(NC[C@@H](O)c4cccc(Cl)c4)cc[nH]c3=O)nc12 [BMS536924] (first compound 1.6 µM, partner dose 0.2 µM), which “cleaved PARP positive nuclei fraction” value is on record?
Its value is 46.5%.

With `CC1(C)CCC(c2ccc(Cl)cc2)=C(CN2CCN(c3ccc(C(=O)NS(=O)(=O)c4ccc(N[C@H](CCN5CCOCC5)CSc5ccccc5)c(S(=O)(=O)C(F)(F)F)c4)cc3)CC2)C1` + O=C(Oc1ccc([N+](=O)[O-])cc1)N1CCC(C(O)(c2ccc3c(c2)OCO3)c2ccc3c(c2)OCO3)CC1 [JZL184] (first compound 0.4 µM, partner dose 1 µM) as the molecule, how does the “cleaved PARP positive nuclei fraction” value read?
The value was 90.6%.

How did the “cleaved PARP positive nuclei fraction” value turn out when `Cc1cc(Nc2cc(N3CCN(C)CC3)nc(/C=C/c3ccccc3)n2)n[nH]1` + C/C(O)=C(\C#N)C(=O)Nc1cc(Br)ccc1Br [LFM-A13] (first compound 0.04 µM, partner dose 2 µM) was run?
Its value is 188%.

How did the “cleaved PARP positive nuclei fraction” value turn out when `N.N.[Cl][Pt][Cl]` [cisplatin] + OCCn1cc(-c2cnc3nnn(Cc4ccc5ncccc5c4)c3n2)cn1 [PF04217903] (first compound 1.6 µM, partner dose 1 µM) was run?
Its value is 261%.

`Cn1cc(C2=C(c3cn(C4CCN(Cc5ccccn5)CC4)c4ccccc34)C(=O)NC2=O)c2ccccc21` [Enzastaurin] + COc1ccc(COc2ccc(Cc3cnc(N)nc3N)cc2OC)cc1 [GW2580] (first compound 0.8 µM, partner dose 1 µM) was tested. Which “cleaved PARP positive nuclei fraction” value did it give?
Its value is 62.6%.

How did the “cleaved PARP positive nuclei fraction” value turn out when `Cn1cc(C2=C(c3cn(C4CCN(Cc5ccccn5)CC4)c4ccccc34)C(=O)NC2=O)c2ccccc21` [Enzastaurin] + c1cc(-c2cnn3cc(-c4ccc(OCCN5CCCCC5)cc4)cnc23)ccn1 [Dorsomorphin] (first compound 0.8 µM, partner dose 0.4 µM) was run?
Its value is 56.5%.

`C[As](C)SC[C@H](NC(=O)CC[C@H](N)C(=O)O)C(=O)NCC(=O)O` [Darinaparsin] + C=CCn1c(=O)c2cnc(Nc3ccc(N4CCN(C)CC4)cc3)nc2n1-c1cccc(C(C)(C)O)n1 [MK1775] (first compound 0.4 µM, partner dose 0.02 µM) was tested. Which “cleaved PARP positive nuclei fraction” value did it give?
The value was 156%.

Which “cleaved PARP positive nuclei fraction” value does the source give for `Cn1cc(C2=C(c3cn(C4CCN(Cc5ccccn5)CC4)c4ccccc34)C(=O)NC2=O)c2ccccc21` [Enzastaurin] + OCCn1cc(-c2cnc3nnn(Cc4ccc5ncccc5c4)c3n2)cn1 [PF04217903] (first compound 0.8 µM, partner dose 1 µM) here?
Its value is 466%.

How did the “cleaved PARP positive nuclei fraction” value turn out when `N.N.[Cl][Pt][Cl]` [cisplatin] + CN(NC(=O)CC(=O)NN(C)C(=S)c1ccccc1)C(=S)c1ccccc1 [STA4783] (first compound 1.6 µM, partner dose 0.006 µM) was run?
Its value is 395%.

For `C=C(c1ccc(C(=O)O)cc1)c1cc2c(cc1C)C(C)(C)CCC2(C)C` [Bexarotene] + O=C(Oc1ccc([N+](=O)[O-])cc1)N1CCC(C(O)(c2ccc3c(c2)OCO3)c2ccc3c(c2)OCO3)CC1 [JZL184] (first compound 2 µM, partner dose 1 µM), which “cleaved PARP positive nuclei fraction” value is on record?
The value was 71.8%.

Which “cleaved PARP positive nuclei fraction” value does the source give for `Cn1sc(=O)n(Cc2ccccc2)c1=O` + O=C(Oc1ccc([N+](=O)[O-])cc1)N1CCC(C(O)(c2ccc3c(c2)OCO3)c2ccc3c(c2)OCO3)CC1 [JZL184] (first compound 0.4 µM, partner dose 1 µM) here?
The value was 139%.

With `C[As](C)SC[C@H](NC(=O)CC[C@H](N)C(=O)O)C(=O)NCC(=O)O` [Darinaparsin] + COc1cc(Nc2ncc(F)c(Nc3ccc4c(n3)NC(=O)C(C)(C)O4)n2)cc(OC)c1OC [Tamatinib] (first compound 0.4 µM, partner dose 0.4 µM) as the molecule, how does the “cleaved PARP positive nuclei fraction” value read?
Its value is 39.1%.

With `CNC(=O)c1cc(Oc2ccc(NC(=O)Nc3ccc(Cl)c(C(F)(F)F)c3)cc2)ccn1` [sorafenib] + Cc1cc(SCc2sc(-c3ccc(C(F)(F)F)c(F)c3)nc2C)ccc1OCC(=O)O [GW0742] (first compound 0.4 µM, partner dose 2 µM) as the molecule, how does the “cleaved PARP positive nuclei fraction” value read?
Its value is 65.6%.

Which “cleaved PARP positive nuclei fraction” value does the source give for `Cn1cc(C2=C(c3cn(C4CCN(Cc5ccccn5)CC4)c4ccccc34)C(=O)NC2=O)c2ccccc21` [Enzastaurin] + COC(=O)c1sccc1S(=O)(=O)Nc1ccc(Nc2ccccc2)cc1OC [GSK0660] (first compound 0.8 µM, partner dose 1 µM) here?
The value was 66.2%.

Reference: the supplement of paper PMC4604168 (melanoma cell lines)
